The structures appear in SMILES notation.

The subject of the experiment is Wistar rats. Put plainly: diuretic effect. It is filed as in vivo. As to conditions: 25 mg/kg oral, urine collected for 6 hours, relative to control. The procedure: Wistar rats (male: 150 - 300 g) were starved for 18 hours prior to the administration of the test compounds. […] Urine was collected for 6 hours after the administration. Urine volume was measured and the electrolytes (Na+ and K+) in the urine were determined with a flame photome[…], Hitachi Ltd., Japan). All parameters are expressed as relative values of control.

On to `NS(=O)(=O)c1cc(C(=O)O)c(NCc2ccco2)cc1Cl` [Furosemide, reference compound], for which the “Increase in K⁺ excretion (%)” value turned out to be 57% and the “Increase in Na⁺excretion (%)” value is reported as 64%.
